# Results are given in words; binding and its absence hold for the method and conditions named. Binding can be weak; no strength is given. Tags and fused reporters may be left off the sequences shown.
# Target: T1, GAL4-BD-REV (REVOLUTA fused to the GAL4 DNA-binding domain) (Arabidopsis thaliana) (UniProt Q9SE43)
# T1 sequence: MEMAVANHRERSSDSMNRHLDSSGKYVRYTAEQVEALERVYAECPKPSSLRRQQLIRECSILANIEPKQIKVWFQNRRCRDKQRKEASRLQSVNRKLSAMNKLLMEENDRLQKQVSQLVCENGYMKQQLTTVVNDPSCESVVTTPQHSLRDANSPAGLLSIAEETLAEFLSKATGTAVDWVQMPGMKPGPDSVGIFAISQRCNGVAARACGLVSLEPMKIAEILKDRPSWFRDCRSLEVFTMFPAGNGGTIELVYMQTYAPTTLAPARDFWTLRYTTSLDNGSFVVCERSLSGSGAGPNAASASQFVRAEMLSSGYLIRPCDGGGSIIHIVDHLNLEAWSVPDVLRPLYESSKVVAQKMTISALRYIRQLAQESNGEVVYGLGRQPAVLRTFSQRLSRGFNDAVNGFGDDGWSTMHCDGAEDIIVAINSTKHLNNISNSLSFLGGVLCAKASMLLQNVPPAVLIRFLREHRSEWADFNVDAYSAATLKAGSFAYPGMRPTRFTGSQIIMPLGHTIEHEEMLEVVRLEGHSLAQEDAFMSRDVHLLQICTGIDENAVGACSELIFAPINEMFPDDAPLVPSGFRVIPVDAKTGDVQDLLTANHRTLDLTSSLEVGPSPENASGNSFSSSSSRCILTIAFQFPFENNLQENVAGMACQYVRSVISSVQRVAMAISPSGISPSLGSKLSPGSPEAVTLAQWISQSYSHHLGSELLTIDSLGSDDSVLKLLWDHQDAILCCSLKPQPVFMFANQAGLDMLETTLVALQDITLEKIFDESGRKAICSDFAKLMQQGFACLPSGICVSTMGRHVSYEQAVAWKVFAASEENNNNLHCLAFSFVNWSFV
# Test: two-hybrid; Matchmaker Gold Yeast Two-Hybrid System; bait as GAL4-BD fusion (pGBKT7) in strain Y2H Gold, prey as GAL4-AD fusion (pGADT7) in strain Y187, mated; serial 1:10 dilutions spotted on DDO control and selective media of increasing stringency (TDO, DDO/X/AbA, QDO, QDO/X, QDO/X/AbA); growth after four to five days at 30 °C
row,Substance,binding
1,GAL4-AD-JAZ1 (Arabidopsis thaliana),binds
2,GAL4-AD-JAZ5 (Arabidopsis thaliana),binds
3,GAL4-AD-JAZ2 (Arabidopsis thaliana),binds

# Reference: PMC9967580
